Measured values from article PMC10418725, “Trypsin from Pyloric Caeca of Asian Seabass: Purification, Characterization, and Its Use in the Hydrolysis of Acid-Soluble Collagen” (Foods, 2023).
Non-standard residues stand in square brackets, D forms with d. Residues, ends and D or L forms follow the SMILES beside them. *: point of attachment. Sta = CC(C)C[C@H](N)[C@@H](O)CC(=O)O; Isovaleryl = CC(C)CC(=O)*

Tested on: purified trypsin (PT) from the pyloric caeca of Asian seabass
Assay: inhibition of BAPNA hydrolysis after […] min preincubation
Assay type: biochemical, Lates calcarifer
Details: pH 8.5, 60 °C, 10 mM CaCl2, BAPNA substrate

## CC(C)CC(=O)N[C@H](C(=O)N[C@H](C(=O)N[C@@H](CC(C)C)[C@@H](O)CC(=O)N[C@@H](C)C(=O)N[C@@H](CC(C)C)[C@@H](O)CC(=O)O)C(C)C)C(C)C [Pepstatin A] (Isovaleryl-VV[Sta]A[Sta]-OH)
10 µM
  % Inhibition: 0.73 ± 0.72%

## Cc1ccc(S(=O)(=O)N[C@@H](Cc2ccccc2)C(=O)CCl)cc1 [TPCK]
5000 µM
  % Inhibition: 3.44 ± 1.75%

## O=C(O)CI [Iodoacetic acid]
1000 µM
  % Inhibition: 1.35 ± 1.01%

## CC(C)C[C@H](NC(=O)[C@H]1O[C@@H]1C(=O)O)C(=O)NCCCCN=C(N)N [E-64]
100 µM
  % Inhibition: 3.55 ± 0.89%

## Cc1ccc(S(=O)(=O)N[C@@H](CCCCN)C(=O)CCl)cc1 [TLCK]
5000 µM, covalent
  % Inhibition: 93.62 ± 0.44%
